Measurements reported in PubChem BioAssay AID686943 (Drosophila RNAi Screening Center, 2013).
Screen: 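Fly genes whose loss alters ERK activation after insulin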 (primary screen). Cell system: Drosophila S2R+ haemocyte-like cells expressing YFP-tagged ERK (Rolled). Reagent: long dsRNA against Drosophila genes. Challenge: insulin stimulation versus unstimulated cells; dose and duration not given. Measured: 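Per-plate z-scores of phospho-ERK immunostaining normalised to YFP-tagged ERK, measured with and without insulin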. Scale: replicate 1, z-score of dpERK with insulin and replicate 2, z-score of dpERK with insulin: higher = more active ERK per ERK-YFP after insulin; replicate 1, z-score of dpERK under basal conditions: higher = more basal active ERK per ERK-YFP; replicate 1, z-score of ERK-YFP with insulin: higher = more YFP-tagged ERK signal.
The screen tested about 23,000 reagents; this is a random part of those that have a named target and a result. 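Extra replicates exist only for a retested subset of genes; insulin dose and duration not given; both raised and lowered dpERK matter.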 Names joined by + are all predicted targets of the reagent. Not given: the amount of reagent, the time to read-out.

| target | dsRNA | replicate 1, z-score of dpERK with insulin | replicate 2, z-score of dpERK with insulin | replicate 1, z-score of dpERK under basal conditions | replicate 1, z-score of ERK-YFP with insulin |
| --- | --- | --- | --- | --- | --- |
| Fit1 | DRSC08450 | 0.08 | 1.03 | -0.72 | 0.21 |
| Ts | DRSC00795 | -0.38 | 0.35 | 0.89 | -0.55 |
| Ts | DRSC22168 | -1.12 | -1.41 | -0.33 | -0.23 |
| mri | DRSC08259 | -0.95 | -1.69 | -0.2 | -0.14 |
| cerv | DRSC19681 | 0.14 | 0.66 | -0.43 | -0.9 |
| egg | DRSC04119 | -0.27 | -0.06 | -0.78 | 0.74 |
| egg | DRSC22534 | 1.14 | 1.76 | 1.79 | -0.58 |
| CG14342 | DRSC00372 | -4.93 | -4.18 | 0.2 | 1.69 |
| EMC4 | DRSC11638 | -0.13 | 0.07 | 0.14 | 1.53 |
| CG12917 | DRSC06231 | 0.22 | 0.83 | 0.19 | 0.31 |
| fz3 | DRSC18779 | 0.6 | 0.45 | 1.19 | -0.51 |
| pot | DRSC19850 | 0.41 | -0.85 | 0.43 | 0.12 |
| lectin-37Da | DRSC03278 | -0.06 | -0.78 | 0.24 | 0.66 |
| lectin-37Da | DRSC22729 | -0.24 | -0.33 | -0.52 | -0.79 |
| CG7675 | DRSC16280 | 0.68 | -0.33 | 0.44 | -0.76 |
| CG42518 + MED9 | DRSC06917 | 2.09 | 0.83 | -1.89 | -2.67 |
| Dhx15 | DRSC06036 | 0.93 | 1.33 | 0.32 | -2.18 |
| scb | DRSC05542 | -0.58 | 0.02 | -0.32 | 1.47 |
| scb | DRSC07678 | 1.32 | 0.72 | 1.64 | -1.4 |
| spin | DRSC07176 | -0.03 | 0.46 | 0.23 | 0.08 |
| spin | DRSC22271 | 4.61 | -3.77 | 0.41 | 0.48 |
| CG8219 | DRSC10971 | 0.37 | -0.21 | – | -0.18 |
| nanos | DRSC17018 | 0.33 | 0.53 | 0.55 | 0.61 |
